Source: publication PMC4855679
These are yes or no findings as the source states them, for the method shown. Binding seen in cells or lysates may run through a third protein. Some results given as binding are weak or reduced against the parent protein; the word gives no strength.

Amino acid sequences for entries named in this document (tags omitted). A change or cut given only in a name is not applied to a line headed by its entry. Chains listed by the source or under a name are the forms on record and can include a tag or linker. Residues count along the entry.
UniProt P37238: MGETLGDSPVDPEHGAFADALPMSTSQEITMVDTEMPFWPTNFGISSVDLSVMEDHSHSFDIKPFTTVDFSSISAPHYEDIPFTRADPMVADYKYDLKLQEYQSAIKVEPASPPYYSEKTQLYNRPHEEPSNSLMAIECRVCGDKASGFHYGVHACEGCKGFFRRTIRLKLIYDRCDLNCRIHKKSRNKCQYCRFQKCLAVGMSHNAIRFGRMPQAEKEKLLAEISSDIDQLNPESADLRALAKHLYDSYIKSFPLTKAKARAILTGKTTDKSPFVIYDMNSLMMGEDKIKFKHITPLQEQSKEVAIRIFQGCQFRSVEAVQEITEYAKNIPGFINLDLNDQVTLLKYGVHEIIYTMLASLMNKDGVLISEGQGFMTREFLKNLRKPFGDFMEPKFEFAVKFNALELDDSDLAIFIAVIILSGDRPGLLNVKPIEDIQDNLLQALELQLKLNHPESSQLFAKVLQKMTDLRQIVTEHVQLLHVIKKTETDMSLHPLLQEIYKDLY
HA-tagged PPAR-γ2 amino acids 1–280: residues 1-280 of P37238
HA-tagged PPAR-γ2 amino acids 1–183: residues 1-183 of P37238
HA-tagged PPAR-γ2 residues 183–505: residues 183-505 of P37238
UniProt O35973: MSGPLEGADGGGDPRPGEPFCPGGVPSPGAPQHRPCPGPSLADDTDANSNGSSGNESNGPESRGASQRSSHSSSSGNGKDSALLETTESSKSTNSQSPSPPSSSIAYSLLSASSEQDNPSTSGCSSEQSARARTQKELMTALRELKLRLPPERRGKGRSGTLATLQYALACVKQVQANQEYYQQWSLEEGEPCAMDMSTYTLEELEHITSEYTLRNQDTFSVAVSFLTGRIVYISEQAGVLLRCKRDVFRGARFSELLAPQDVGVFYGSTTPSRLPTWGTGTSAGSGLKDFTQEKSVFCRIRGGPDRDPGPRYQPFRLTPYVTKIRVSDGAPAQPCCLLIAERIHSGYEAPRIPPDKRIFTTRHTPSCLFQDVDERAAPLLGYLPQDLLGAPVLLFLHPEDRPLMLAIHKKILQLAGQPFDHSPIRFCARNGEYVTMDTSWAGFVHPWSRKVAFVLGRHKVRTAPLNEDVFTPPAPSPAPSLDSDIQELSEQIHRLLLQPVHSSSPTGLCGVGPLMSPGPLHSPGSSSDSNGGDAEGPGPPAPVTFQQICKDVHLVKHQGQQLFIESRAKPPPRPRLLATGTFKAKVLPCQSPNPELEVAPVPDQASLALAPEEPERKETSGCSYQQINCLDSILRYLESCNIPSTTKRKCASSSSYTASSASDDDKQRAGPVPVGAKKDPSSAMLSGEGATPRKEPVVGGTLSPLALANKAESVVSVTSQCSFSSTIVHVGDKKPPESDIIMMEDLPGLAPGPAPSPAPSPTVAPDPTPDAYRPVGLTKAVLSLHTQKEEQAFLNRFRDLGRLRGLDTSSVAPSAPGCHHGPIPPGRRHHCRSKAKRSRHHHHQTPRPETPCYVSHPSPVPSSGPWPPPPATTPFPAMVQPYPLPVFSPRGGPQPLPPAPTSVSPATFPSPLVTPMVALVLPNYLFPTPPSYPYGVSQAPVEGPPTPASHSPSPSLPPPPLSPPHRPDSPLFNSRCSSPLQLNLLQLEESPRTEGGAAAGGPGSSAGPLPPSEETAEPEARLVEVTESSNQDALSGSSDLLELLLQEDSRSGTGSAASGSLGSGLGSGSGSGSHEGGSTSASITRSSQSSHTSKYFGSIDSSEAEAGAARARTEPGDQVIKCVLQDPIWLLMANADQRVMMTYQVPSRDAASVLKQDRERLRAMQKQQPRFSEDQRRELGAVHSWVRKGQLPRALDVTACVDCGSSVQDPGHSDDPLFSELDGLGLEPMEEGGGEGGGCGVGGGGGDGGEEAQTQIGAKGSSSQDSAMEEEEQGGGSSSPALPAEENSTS

Columns and labels:
Assay in all cases: co-IP; B6F10 cells co-transfected with HA-tagged fragments of PPAR-γ2 and PER1; lysis in 10 mM Tris-HCl pH 8, 420 mM NaCl, 1 mM EDTA, 0.5% NP-40; anti-HA antibody overnight at 4 °C, Protein A-Sepharose 4B; blot for PER1
[1] = biological target: HA-tagged PPAR-γ2 amino acids 1–183 (UniProt P37238)
[2] = biological target: HA-tagged PPAR-γ2 amino acids 1–280 (UniProt P37238)
[3] = biological target: HA-tagged PPAR-γ2 residues 183–505 (UniProt P37238)

binding [1]: no binding
binding [2]: binds
binding [3]: no binding
Substance: PER1 (from UniProt O35973 1-1291)
